Results are given in words; binding and its absence hold for the method and conditions named. In cells and extracts the contact can be indirect. Some results given as binding are weak or reduced against the parent protein; the word gives no strength.
Target: Protein kinase casein kinase 2 (CK2) (rat (endogenous in primary rat articular chondrocytes)) (UniProt P19139)
Assay: co-IP; extracts of primary rat articular chondrocytes incubated with antibodies, precipitated with protein A-agarose, western blot; untreated control cells (CK2-HSP90 also after DRB treatment)

By UniProt entry, the sequences of proteins in these tests, tags left out.
UniProt P19139: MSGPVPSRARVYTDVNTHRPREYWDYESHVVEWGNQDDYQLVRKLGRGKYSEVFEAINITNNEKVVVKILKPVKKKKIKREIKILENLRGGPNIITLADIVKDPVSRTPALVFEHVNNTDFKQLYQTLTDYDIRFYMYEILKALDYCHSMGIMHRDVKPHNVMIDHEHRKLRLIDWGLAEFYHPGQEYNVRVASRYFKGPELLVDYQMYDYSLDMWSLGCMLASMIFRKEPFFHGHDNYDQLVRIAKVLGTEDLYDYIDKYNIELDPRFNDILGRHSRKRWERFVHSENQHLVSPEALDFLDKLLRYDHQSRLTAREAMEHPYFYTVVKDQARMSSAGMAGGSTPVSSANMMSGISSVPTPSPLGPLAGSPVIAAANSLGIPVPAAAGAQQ

- binding: binds
B1: alpha B-crystallin (heat-shock protein b5) (protein, UniProt P23928 1-175)
chain: MDIAIHHPWIRRPFFPFHSPSRLFDQFFGEHLLESDLFSTATSLSPFYLRPPSFLRAPSWIDTGLSEMRMEKDRFSVNLDVKHFSPEELKVKVLGDVIEVHGKHEERQDEHGFISREFHRKYRIPADVDPLTITSSLSSDGVLTVNGPRKQASGPERTIPITREEKPAVTAAPKK
